Measured values from patent US8816050 (dated 2014).

Assays:
[1] = solid-phase peptide synthesis; conditions: for isolated mass / isolated yield: whole synthesis; for step yield: coupling step
[2] = Fmoc solid-phase peptide synthesis; Rink amide resin; PyBOP/NMM; conditions: whole synthesis, scale of the general procedure 100 μmol
[3] = Fmoc solid-phase peptide synthesis; H2N-Phe-2-ClTrt-resin; PyBOP/NMM; conditions: whole synthesis, scale of the general procedure 100 μmol
[4] = scale of the general procedure 100 μmol

## Ac-Leu-Tyr-Arg-Ala-Ala-S(CH2)2CONH2
[1]; scale 100 μmol
  isolated mass: 39 mg
  isolated yield: 54%

## Ac-Leu-Tyr-Arg-Ala-Gly-S(CH2)2CONH2
[1]; scale 100 μmol
  isolated mass: 50.6 mg
  isolated yield: 72%

## Ac-Leu-Tyr-Arg-Ala-His-S(CH2)2CONH2
[1]; scale 100 μmol
  isolated mass: 31 mg
[1]; [4]
  isolated yield: 39%

## Glycopeptide Thioester Asp^1-Asn^36
[2]
  isolated yield: 9% yield

## Glycopeptide Val^53-Phe^82
[3]
  isolated yield: 18% yield

## Thioester Peptide Cys(Acm)^37-Gly^52
[1]; [4]
  isolated yield: 43% yield

## dexSAL Gly-Gly
[1]
  step yield: 70%

## exSAL Gly-Gly
[1]
  step yield: 86%

## pexSAL Gly-Gly
[1]
  step yield: 49%

## qexSAL Gly-Gly
[1]
  step yield: 38%*

## texSAL Gly-Gly
[1]
  step yield: 60%

Marks after values point to notes of the source that are not given here.
